The text below walks through data of the supplement of paper PMC8326762, “A Small Molecule Inhibitor of Pex3–Pex19 Interaction Disrupts Glycosome Biogenesis and Causes Lethality in Trypanosoma brucei” (Frontiers in Cell and Developmental Biology, 2021).

Structures can show the parent of a compound that is named as a salt. Some of the results follow. This is a noisy data set.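 Yeast growth was read as optical density at 600 nm. The two-hybrid strains grew without histidine, so growth needed the Pex3–Pex19 binding; a compound counted as trypanosome-selective if it cut growth of the trypanosome-pair strain by more than 65% and the human-pair strain by less than 65%.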

Test [1] deals with Saccharomyces cerevisiae HF7c pdr5Δ. In words: general growth inhibition of yeast HF7c pdr5Δ in -Leu -Trp medium, relative to DMSO; higher = stronger general growth inhibition. Particulars: 100 µM; 24 h.
The subject of test [2] is human PEX3-PEX19 interaction (yeast two-hybrid). Briefly: growth inhibition of yeast two-hybrid strain reporting HsPex3-HsPex19 interaction, relative to DMSO; higher = stronger inhibition of human Pex3-Pex19 interaction / growth. Conditions: 100 µM; 24 h; 3-aminotriazole 10 mM.
Test [3] deals with T. brucei Pex3-Pex19 interaction (yeast two-hybrid). In words: growth inhibition of yeast two-hybrid strain reporting TbPex3-TbPex19 interaction, relative to DMSO; higher = stronger inhibition of T. brucei Pex3-Pex19 interaction / growth. Particulars: 100 µM; 24 h.

Compound `C[C@@H]1O[C@@H](O[C@H]2C[C@@H](O)[C@]3(CO)[C@H]4[C@H](O)C[C@]5(C)[C@@H]([C@@H]6COC(=O)C6)CC[C@]5(O)[C@@H]4CC[C@]3(O)C2)[C@H](O)[C@H](O)[C@H]1O` [Dihydroouabain] displayed a general growth inhibition in test [1] of 43.1%. The growth inhibition stood at 47.4% in test [2] and 59.8% in test [3].

In test [1], `CN1CCC[C@@H]1Cc1c[nH]c2ccc(Nc3ncccc3[N+](=O)[O-])cc12` registered a general growth inhibition of 8.71%. Besides, the results for the growth inhibition in test [2] and in test [3] were -1.43% and 32%, respectively.

In test [1], `Cc1ncsc1CCCl` [Chlormethiazole hydrochloride] displayed a general growth inhibition of 34.6%. Further, the growth inhibition in test [2] is 40%; in test [3], 51.6%.

As for `CC[C@H]1CN2CCc3cc(OC)c(OC)cc3[C@@H]2C[C@@H]1C[C@H]1NCCc2cc(OC)c(OC)cc21` [Emetine dihydrochloride hydrate], the general growth inhibition in test [1] amounted to 27%. Moreover, the growth inhibition amounted to 45.9% in test [2] and 56.4% in test [3].

On to `C=C(C)[C@H]1CN[C@H](C(=O)O)[C@H]1CC(=O)O` [Kainic acid], for which, in test [1], the general growth inhibition was found to be 46.6%. Besides, the growth inhibition is 48.1% in test [2] and 61.1% in test [3].

With `Cc1cccc(C)c1NC1=NCCCS1` [Xylazine hydrochloride], the general growth inhibition in test [1] amounted to 51.4%. Further, the growth inhibition in test [2] was found to be 54.8%; in test [3], 72.1%.

`NCCc1ccc(O)cc1` [4-Hydroxyphenethylamine hydrochloride]: the general growth inhibition in test [1] was 50%. For the same compound, the growth inhibition in test [2] stood at 49.6%; in test [3], 72.7%.

Compound `COC(=O)[C@@H](N)CCCNC(=N)N[N+](=O)[O-]` [NG-Nitro-L-arginine methyl ester hydrochloride] registered a general growth inhibition in test [1] of 52.2%. Besides, the growth inhibition in test [2] amounted to 41.2%; in test [3] it was 71.2%.

As to `O=C1/C(=C/c2ccccc2)C[C@@]2(O)[C@H]3Cc4ccc(O)c5c4[C@@]2(CCN3CC2CC2)[C@H]1O5` [BNTX maleate salt hydrate], in test [1], the general growth inhibition is 40.3%. The growth inhibition was found to be 43.3% in test [2] and 53.1% in test [3].

`NC(=O)CN1CCCC1=O` [Piracetam]: in test [1], the general growth inhibition came to 43.3%. Moreover, the growth inhibition in test [2] was 45.8%; in test [3], 52%.

`COc1cc2c(c(OC)c1OC)-c1ccc(OC)c(=O)cc1[C@@H](NC(C)=O)CC2` [Colchicine]: in test [1], the general growth inhibition was 30.3%. The values for the growth inhibition in test [2] and in test [3] were 40.6% and 59.8%, respectively.

In test [1], `CCCCc1ccc(C(=O)O)nc1` [Fusaric acid] yielded a general growth inhibition of 46.2%. Also, the results for the growth inhibition in test [2] and in test [3] were 47.4% and 58%, respectively.

For the compound `CCCN1CC[C@@H]2c3cc(O)ccc3CC[C@@H]21` (racemic) [cis(+/-)-8-OH-PBZI hydrobromide], in test [1], the general growth inhibition was found to be 45.5%. In addition, the figures for the growth inhibition in test [2] and in test [3] were 40.5% and 70.7%, respectively.

In test [1], `C[C@@H](N)Cc1cnc[nH]1` [Histamine, R(-)-alpha-methyl-, dihydrochloride] registered a general growth inhibition of 26.7%. For the same compound, the results for the growth inhibition in test [2] and in test [3] were 40.7% and 62.1%, respectively.

In test [1], `CC(CCc1ccccc1)NC(C)C(O)c1ccc(O)cc1` (stereo not drawn) [Nylidrin hydrochloride] returned a general growth inhibition of 52.7%. Also, the growth inhibition in test [2] was found to be 40.5%; in test [3], 60.2%.

In test [1], `Oc1ccc2c3c1O[C@H]1c4[nH]c5ccccc5c4C[C@@]4(O)[C@@H](C2)N(CC2CC2)CC[C@]314` [Naltrindole hydrochloride] showed a general growth inhibition of 47.5%. Further, the figures for the growth inhibition in test [2] and in test [3] were 41.3% and 62.4%, respectively.

With `Clc1ccc(N2CC3CCC(C2)N3)nn1`, the general growth inhibition in test [1] came out at 33.3%. Further, the results for the growth inhibition in test [2] and in test [3] were 39.5% and 50.6%, respectively.

Take `c1ccc(C2CC2)c(OCC2=NCCN2)c1` [Cirazoline hydrochloride]: the general growth inhibition in test [1] was found to be 26%. The values for the growth inhibition in test [2] and in test [3] were 50.6% and 67.1%, respectively.

Take `N=C(N)NN` [Aminoguanidine hydrochloride]: in test [1], the general growth inhibition was 45.3%. For the same compound, the growth inhibition in test [2] was found to be 42.7%; in test [3], 67.9%.

In test [1], `CN1CC[C@@]2(C)c3cc(O)ccc3N(C)C12` (single isomer, unassigned; (-)) [(-)-Eseroline fumarate] yielded a general growth inhibition of 10.8%. Moreover, the growth inhibition in test [2] was 3.49%; in test [3] it was 25.7%.

Compound `NCCc1c[nH]c2ccccc12` [Tryptamine hydrochloride] returned a general growth inhibition in test [1] of 34.8%. Also, the growth inhibition was determined as 34.8% in test [2] and 48.4% in test [3].

`NC(=O)c1ccc(OCC(O)CN2CC=C(c3ccc(F)cc3)CC2)cc1` (stereo not drawn) returned a general growth inhibition in test [1] of 31.4%. In addition, the results for the growth inhibition in test [2] and in test [3] were 10.6% and 42%, respectively.

Take `COc1ccc(C(CN(C)C)C2(O)CCCCC2)cc1` (stereo not drawn) [Venlafaxine hydrochloride]: in test [1], the general growth inhibition was 35.1%. Moreover, the growth inhibition was determined as 35.9% in test [2] and 64.9% in test [3].

`c1ccc(CCCN2CCN(CCOC(c3ccccc3)c3ccccc3)CC2)cc1` yielded a general growth inhibition in test [1] of 9.94%. Also, the figures for the growth inhibition in test [2] and in test [3] were -11% and 27.1%, respectively.

Consider `CCn1cnc2c(Nc3cccc(Cl)c3)nc(N[C@@H]3CCCC[C@@H]3N)nc21`, for which the general growth inhibition in test [1] turned out to be 24.8%. Also, the growth inhibition in test [2] was 25.1%; in test [3] it was 42.5%.

The compound `CC1=NN=C(c2ccc(N)cc2)c2cc3c(cc2C1)OCO3` showed a general growth inhibition in test [1] of 11%. The growth inhibition in test [2] is -3.57%; in test [3] it was 24%.

Turning to `Cc1cccc(C)c1NC(=O)CN1CCCC1=O` [Nefiracetam], the general growth inhibition in test [1] was 41.7%. The growth inhibition in test [2] was determined as 43.1%; in test [3] it was 64.7%.

The compound `CN1C[C@H](CNC(=O)OCc2ccccc2)C[C@@H]2c3cccc4c3c(cn4C)C[C@H]21` [Metergoline] came in with a general growth inhibition in test [1] of 9.3%. Also, the growth inhibition in test [2] was determined as 0.477%; in test [3], 24.9%.

On to `NC(Cc1cc(O)c(O)cc1O)C(=O)O` (racemic) [6-Hydroxy-DL-DOPA], for which the general growth inhibition in test [1] turned out to be 7.86%. The growth inhibition in test [2] was determined as 0.794%; in test [3], 30.7%.

`NCCc1c[nH]c2ccc(C(N)=O)cc12` [5-Carboxamidotryptamine maleate] registered a general growth inhibition in test [1] of 42.5%. The growth inhibition in test [2] was 30.3%; in test [3] it was 59.5%.

In turn, `CN1CCC(c2c[nH]c3ccc(O)cc23)CC1` returned a general growth inhibition in test [1] of 36.8%. The growth inhibition in test [2] is 46.3%; in test [3], 64%.
